The text below walks through data of publication PMC7179302, “Lead Optimization of Dehydroemetine for Repositioned Use in Malaria” (Antimicrobial Agents and Chemotherapy, 2020).

The series deals with mitochondrial membrane potential of P. falciparum strain K1 trophozoites. The series can be described thus: Rhodamine 123 staining for mitochondrial membrane potential, flow cytometry. It is filed as cell-based, Plasmodium falciparum. As for the experimental part:
Changes in mitochondrial membrane potential were measured using rhodamine 123 (excitation wavelength, 511 nm; emission wavelength, 534 nm), a membrane-permeating cationic fluorescent dye ([49]), which accumulates by electrostatic attraction in the mitochondria because of its negative transmembrane potential. A change in the dye’s concentration in the mitochondria is caused by a depolarization event and can be visualized as a shift in the fluorescence intensity of rhodamine 123 ([50]). Draq5 (excitation wavelength, 647 nm; emission wavelength, >665 nm) is a far-red fluorescent DNA dye which is cell permeating and was used to distinguish the parasites in flow cytometry in the allophycocyanin (APC)-Cy7-A channel. SYBR green was not preferred for this experiment as it emits in the same channel as rhodamine 123 and would result in the overlap of emission signals. Fluorescence microscopy was used to visualize the localization of rhodamine 123 within the cytoplasm of the parasites (Fig. 9).
A decrease in fluorescence intensity measured in the fluorescein isothiocyanate (FITC)-A channel indicates a loss of mitochondrial membrane potential. Atovaquone, a known mitochondrial inhibitor, was used as a control.
Compounds were then washed away by centrifuging the cultures, and a pellet was prepared for each drug concentration. Pellets were then incubated with 1 ml of 200 nM rhodamine 123 for 1 h, followed by a further incubation with 100 μl of 5 μM Draq5 for 20 min. After a wash with PBS, the experiment was read with a flow cytometer on the FITC channel. Loss of mitochondrial membrane potential was indicated by a decrease in fluorescence intensity.

Counter-ions that a name gives are not always drawn.

Turning to `CCC1=C(C[C@H]2NCCc3cc(OC)c(OC)cc32)C[C@H]2c3cc(OC)c(OC)cc3CCN2C1` [(−)-R,S-dehydroemetine, (S)-2-((R)-6,7-dimethoxy-1,2,3,4-tetrahydro-isoquinolin-1-ylmethyl)-3-ethyl-9,10-dimethoxy-1,6,7,11b-tetrahydro-4H-pyrido[2,1-a]isoquinoline * dihydrobromide], where the note is “at IC50”, the FITC-A mean is 3544, the “FITC-A mean (range gate)” value was 4894 and the Parasitaemia is reported as 1.78%. Also, where the note is “at IC50x10”, the FITC-A mean is 3243, the “FITC-A mean (range gate)” value stood at 4390 and the Parasitaemia is 1.67%.

As to `O=C1C(O)=C([C@H]2CC[C@H](c3ccc(Cl)cc3)CC2)C(=O)c2ccccc21` [Atovaquone, atovaquone], under “at IC50”, the FITC-A mean is 2809, the “FITC-A mean (range gate)” value worked out at 3705 and the Parasitaemia was determined as 1.69%. Where the note is “at IC50x10”, the FITC-A mean was found to be 2750, the “FITC-A mean (range gate)” value was found to be 3821 and the Parasitaemia is 1.66%.

Consider `CC[C@H]1CN2CCc3cc(OC)c(OC)cc3[C@@H]2C[C@@H]1C[C@H]1NCCc2cc(OC)c(OC)cc21` [Emetine dihydrochloride, emetine dihydrochloride], for which, where the note is “at IC50”, the FITC-A mean amounted to 3333, the “FITC-A mean (range gate)” value is listed as 4491 and the Parasitaemia was 1.73%. For the same molecule, for the setting “at IC50x10”, the FITC-A mean was 3139, the “FITC-A mean (range gate)” value is given as 4301 and the Parasitaemia is 1.72%.
